The values that follow come from PubChem BioAssay AID1508600 (Functional Genomics Laboratory (NCATS/FGL), 2020).

Among all 53,000 sequences or so, about 3,700 (7%) were called active.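 How the source made its calls: active means gene knockdowns whose robust z-score for IL-1 alpha signal is at least 2 or at most -2, so actives lie on both sides; inactive means the rest.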 This is one part of the list.

The assay can be described thus: Components of the Cytosolic LPS Sensing Pathway: Gene Identification via Genome-wide siRNA Screen.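 Further: robust z of the log signal after scaling to non-targeting control siRNA wells of the plate.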 The conditions noted are these: RAW264.7 macrophages, IL-1a HTRF, actives lie on both sides, screened at 100 nM (by protocol), cells primed 5 h with Pam3CSK4 first. The procedure, abridged: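 Mouse macrophage line RAW264.7 is transfected with siRNA (100 nM final), grown 48h, primed with TLR ligand Pam3CSK4 5 h and given intracellular LipidA 24 h. IL-1a in supernatant is read by HTRF and viability by luminescence.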
(In general: TR-FRET usually uses a lanthanide donor and a delayed reading to cut background.)
GGACCAUCCCUUCUUCUAUTT against Coq8a: the z-score was inactive: -0.428.
With GGCUUUCCUUACCAUAUAUTT against Trim7, the z-score is inactive: -0.675.
For GCUGGAUACUAAAUAUCCUTT against Dctd, the z-score was inactive: -0.136.
As to GGGAUUUCAUCGUGCAACGTT against Ndufa2, the z-score was inactive: -0.553.
As for GGUGGAAGCAAGAGAAAAUTT against Tnp1, the figure is active: 2.03; as for GGCACUAAUGUAAAAACCATT against Bbs7, inactive: -1.58; as for CGGAACACUUUAGAAUCUATT against Ccdc92b, inactive: 0.573.
CCUGGAUCGGAACCAAAUGTT against Ccl2: the z-score is inactive: 1.16.
In the case of GGGCAAAAGUACUUUGACUTT against Ensa, the z-score was active: 2.2.
GGAAAAAGCGGUGACCAACTT against Ndufs2: the z-score was inactive: 0.341.
As to GGAGAAAGGAACUGAAAGUTT against Msrb3, the z-score was inactive: 0.139.
For GGACAACGAGUGUCUGGGUTT against Cx3cr1, the z-score is active: 4.8.
Take GGUACAGGUUGACCAAACUTT against Atp6v1e2: the z-score was inactive: -1.58.
In the case of CCUGGACAUAACCAAUGUATT against Glrp1 it was inactive: 1.5; in that of CCAGAUUAUGACAAAGCGUTT against Glyat, inactive: -0.0538.
Regarding GGUCUUCCUUCCAGUGUUCTT against Slc5a8, the z-score is inactive: -0.808.
In the case of GGGACAUUGCUCAAGAUUATT against Ankrd54 it was inactive: 0.582; in that of CCUGGAUGCAGGUUAAGCUTT against Dppa5a, inactive: -0.817.
On to CCAGCCAGACUGAAAAAGCTT against Stmnd1, for which the z-score was inactive: -0.652.
Take GCUGCUAUGAGAGAGUUUUTT against Serpind1: the z-score was active: 2.18.
For CGGCCUACAUCUUAGUGGUTT against Cd151, the z-score is inactive: -0.757.
On to GCUUAAGCGACUUCAUUGCTT against Gimap7, for which the z-score was inactive: 1.19.
For GGAAAAUGUUUUACCAAUGTT against Rspry1, the z-score is inactive: -0.102.
With GGAAAGAAGGUGAACAACATT against Phax, the z-score was inactive: 1.96.
For the sequence GGUGGAAGGAAAGAGACCUTT against Gimap7, the z-score is inactive: 0.472.
Turning to GGUUACAGAGAGACAUCAUTT against Cdk5rap2, the z-score is inactive: 0.942.
As to GCCUUCAGUCCUAGAAACCTT against Lrrk1, the z-score was inactive: 0.177.
As for “CCAGAUCCUAUCUUUCGAGTT against 2610318N02Rik”, the figure is inactive: -0.221; as for GGCACCAUGUACCAAAUCCTT against Fetub, inactive: 0.601; as for CGAUUAUGACCGAUAUAGATT against Srsf10, inactive: 0.626.
Turning to GGACCUAAAGUUUCUCUCATT against Ccnc, the z-score was inactive: -0.2.
On to CGGACUCCAUAUGUUGAAUTT against Crtc1, for which the z-score is inactive: 0.414.
In the case of CCCUAAAGUCCAGAAAAUATT against Olfr1211, the z-score was inactive: -1.25.
For GGACCAAAUUACAUAGCAATT against Itgb3bp, the z-score was inactive: 0.329.
For GGUGAUUUGAACUGUGAAATT against Tmem126a, the z-score was inactive: -0.963.
As for GGAGAAGGCAAAGACUCUGTT against Serpina3n, the z-score is inactive: -0.546.
For “GGCUGGAUUUUAUUUUGUUTT against D830039M14Rik”, the z-score is inactive: 0.339.
Consider CCAACCGAGUCAUUUAAGGTT against Runx2, for which the z-score was inactive: 0.112.
For the sequence GGUAUGAUGGACUCUCUGUTT against Olfr186, the z-score was inactive: -0.485.
As to CCACCCUGUGAAAAAGUCATT against Ccr3, the z-score is inactive: -1.08.
Regarding GGUGGUUAAAUGGUUUUAATT against Prkg2, the z-score was inactive: 1.98.
Take CCCUCUUAGGAGCUAGUGATT against Atp2b4: the z-score is inactive: -1.85.
Consider GGAAGCUUCACAUCAGCCATT against Hoxb5, for which the z-score was inactive: 0.194.
Regarding GCCACGUCUAAGUAUCAUUTT against Col6a1, the z-score was inactive: -0.377.
In the case of GGCCAUUCACGUUUUACUCTT against Ric8b it was inactive: -1.02; in that of GGGCCACAAGAAAUGAUAUTT against Nqo2, inactive: -0.196.
For GGGUCUGUGGGACAUUAUGTT against Serinc2, the z-score is inactive: -1.13.
For GGAAUAAAGAUCUUUGGUUTT against Vip, the z-score is inactive: 0.105.
In the case of GCAUUUGUACAUUGUGACUTT against Ces5a, the z-score is active: -2.28.
Turning to GGAUGUCGUGUGUUACUUGTT against Dgkg, the z-score was inactive: -0.0626.
Take GGAGAUUGCCAUAGCUGCUTT against Mybl2: the z-score was inactive: -0.0915.
Turning to GGGCUUCUUCAGACGAACATT against Nr1i3, the z-score was inactive: 1.57.
Regarding GCUUCUACGUAUGUGCCCATT against Tpx2, the z-score was inactive: -1.52.
For CCUUCUAGACACCAUACCCTT against Pidd1, the z-score was inactive: 0.259.
With GGAGUGGAAGAAGAAGUAUTT against Agap3, the z-score was inactive: 0.177.
In the case of GGAUUCAAGGCUGUGGGAATT against Timp1 it was inactive: 1.24; in that of GGAGCUCAUCUACAUGCACTT against Plbd2, inactive: -0.0217; in that of GGUCUUAGUAAUAUCAUCGTT against Cacng2, inactive: -0.135.
For GCAAAAGGGCUGUUUGUAGTT against Olfr1279, the z-score is inactive: -0.416.
As for CCACAAGGUCUUUGGAUGATT against Pcdha8, the figure is inactive: 1.26; as for “GGAUCACAGCGAUUAUUGATT against D630028G08Rik”, inactive: -0.613; as for GCAAGACAUUUUGAGAAGATT against Zdhhc20, inactive: -0.695.
For the sequence CCCACUGUCCAACUACUCATT against Rexo1, the z-score is inactive: 0.432.
In the case of “AAUUCAUCCUCAGCGUACATT against D830030K20Rik” it was inactive: 0.49.
On to GAUUCAGCAUUAUUUCUGUTT against Olfr980, for which the z-score was inactive: 0.524.
In the case of GGGCUUCAAGCAUAGCUUCTT against Fiz1 it was inactive: -0.343; in that of GGGAUCAAUGCUUAAUACATT against Zfp2, inactive: 1.1; in that of GGCCCGAAUAGCUAUGACUTT against Cldn7, inactive: 0.817.
As for “GGGUUAAGGUAGUUUCUAATT against 4930579C12Rik”, the figure is inactive: 0.613.
As for GGUACUGAAUUCAACAAACTT against Ercc6l, the z-score was inactive: -0.447.
With GGAGUUGGUCAAGGUGCUUTT against Parvb, the z-score is inactive: 0.863.
As for AGUGAACAUCGAUCGCAUGTT against Gng8, the z-score is inactive: 0.937.
Turning to CGUAUAUCGAUGAAGAUGATT against BC016579, the z-score was inactive: -1.12.
As to GGCAUAAACUACAUUUGAUTT against S1pr3, the z-score was inactive: -0.258.
On to GCAGGCAUUCUCUCAAAAUTT against Tmem176a, for which the z-score is inactive: -0.19.
With GGAUAAACCAGAAACCUUCTT against Msmo1, the z-score is inactive: -0.0602.
For the sequence “GGAGAUCCAAUGAACCUACTT against 4932414J04Rik”, the z-score was inactive: 1.7.
As to GCCCAAGGUAACAACAAGCTT against Rtn4r, the z-score was inactive: 1.28.
As to CCACAAUUUUUUCUGCCUCTT against Olfr492, the z-score was inactive: -0.694.
Consider GCACUACCUGUAUUAAACUTT against Efhd2, for which the z-score was inactive: -0.652.
In the case of GGAGGAAAGGGAAGAAUUUTT against Rnf125 it was inactive: 1; in that of GCUUAUAAUGGCAAUAUUGTT against Nvl, inactive: 0.275.
As to GGCCACUUAAAUCAGAACUTT against Hoxc8, the z-score was inactive: 0.817.
Turning to GCUACGGAACCUCUAGACATT against Cbln3, the z-score was inactive: 0.179.
Regarding CGACAACGACAUCAUGGAATT against Sfrp2, the z-score was inactive: 1.52.
As for GGUUCUCACGCGGUUUUUGTT against Pigv, the z-score is inactive: -0.307.
For GCCUUAAGUAUUGUUACUUTT against Tnfrsf25, the z-score was inactive: 0.847.
As for GGAUGGAAUGCAUCGAUUATT against Adipor2, the figure is inactive: 0.481.
For CCAGGAACCAGAAAAAGAUTT against Aven, the z-score is inactive: 0.0457.
Take GCAAAUUUAGUUGACCUUGTT against Ghitm: the z-score was inactive: -0.561.
As to GCAAUACUCACCUCUUAAATT against Scamp2, the z-score was inactive: 1.04.
GGUAACUGGGAAUUGUGUUTT against Vti1a: the z-score is inactive: 0.812.
Consider GGAGACAUCUCAAAUGAUATT against Trim30a, for which the z-score is inactive: 0.324.
As for GCCAUUCAUGGAGAAGGAUTT against Lman1l, the z-score is inactive: -1.63.
Turning to GGUAGAGCCUGACAUCAACTT against Ppp2r3d, the z-score was inactive: 1.41.
As to GCUGGACUAACAUUGCUGUTT against Tmem270, the z-score was inactive: -0.758.
As for AGUGCUUUGUAAUGCUUGGTT against H2bc8, the figure is inactive: -0.228; as for CGCAAGUGGAUUGUAAUAATT against Sema3e, inactive: -0.19; as for CACUGAACAGAUCAGAGCATT against Fam189b, active: -2.44.
As to AUAUAGACCUCGUUACGUATT against Nkain2, the z-score was inactive: 1.39.
Take GGAAACAGGAAAGUUAAUUTT against Fyco1: the z-score is inactive: 1.05.
With GCUGGAUAGCUAAAAUGAUTT against Gimap5, the z-score was inactive: -0.0294.
With GGGCCUAUUAAUCUUGAGUTT against Klrb1b, the z-score is inactive: 0.153.
GGAAAAAAAAGUCUUCCUATT against Ttll6: the z-score was inactive: -0.0777.
CCAUAUCCUGAAUACACCCTT against Olfr295: the z-score is inactive: -1.43.
For the sequence GGCAGACUGCUGACAUAUGTT against Cd37, the z-score was active: -2.44.
